The list is a part of this screen's results and no random one: it gathers tests that were run many times, whatever their T/C, doses with no T/C, and many T/C values between a quarter and a half above the control. Other doses and runs of a compound stand elsewhere. T/C gives the treated animals as a percentage of the vehicle group. Schedules are NCI's codes, taken here to give the interval after Q, in days (D) or hours (H), and the number of doses after X. Some values lie below zero, which means that the treated tumours became smaller. Some entries hold several experiments; their values stand side by side, smallest first. Some T/C values are followed by the survivors on the day toxicity was checked, most often the fifth; without a count, all were alive then. Some doses have a count of surviving animals in place of a T/C: the source holds a T/C of zero for them, seemingly a mark for toxic or unscored doses. Counts of survivors are from the toxicity check (mostly the fifth day) where no day follows; animals may have died later.
Test system: MX-1 breast xenograft, nude mice, tumor weight T/C
Assay: NCI In Vivo Anticancer Drug Screen. Data for tumor model Human Mammary Carcinoma MX-1 Xenograft (intrarenal inoculation) in NU/NU Swiss (nude) mice
Details: T/C endpoint: mean tumor weight change, higher T/C = larger tumour; for T/C: evaluated on day 11
Summary of the method: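 Activity is given as a ratio, with each measurement in the compound-treated arm divided by the matching measurement in vehicle-dosed controls. Tumour size or survival serves as the measured parameter.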

[1] = dose: 600.0 mg/kg/injection, schedule: Q04DX003 (sc), vehicle: saline with Tween-80
[2] = dose: 200.0 mg/kg/injection, schedule: Q04DX003 (sc), vehicle: Klucel (hydroxypropylcellulose) (HPC)
[3] = dose: 400.0 mg/kg/injection, schedule: Q04DX003 (sc), vehicle: Klucel (hydroxypropylcellulose) (HPC)
[4] = dose: 150.0 mg/kg/injection, schedule: Q04DX003 (sc), vehicle: saline
[5] = dose: 600.0 mg/kg/injection, schedule: Q04DX003 (ip), vehicle: Klucel (hydroxypropylcellulose) (HPC)
[6] = dose: 300.0 mg/kg/injection, schedule: Q04DX003 (sc), vehicle: saline

`CCC1=C[C@H]2CN(CCc3c([nH]c4ccccc34)[C@@](C(=O)OC)(c3cc4c(cc3OC)N(C)[C@H]3[C@@](O)(C(=O)NC)[C@H](OC(C)=O)[C@]5(CC)C=CCN6CC[C@]43[C@@H]65)C2)C1` was tested, and the survivor count (dose: 4.0 mg/kg/injection, schedule: Q04DX003 (sc), vehicle: water) was 0 of 6 on day 11 and the survivor count (dose: 8.0 mg/kg/injection, schedule: Q04DX003 (sc), vehicle: water) was 0 of 6 on day 11.
In the case of `CC(C)NC(=O)OCc1c(COC(=O)NC(C)C)c(-c2ccc(Cl)c(Cl)c2)n2c1CCC2`, the T/C (dose: 100.0 mg/kg/injection, schedule: Q01DX010 (sc), vehicle: distilled water + Tween-80) is reported as 9, 33, 44 [5 of 6 alive on day 11], 60 % of control and the T/C (dose: 200.0 mg/kg/injection, schedule: Q01DX010 (sc), vehicle: distilled water + Tween-80) is reported as 11, 13, 25, 72 % of control.
`CS(=O)(=O)c1ncc(Br)cn1` was tested, and the T/C (dose: 25.0 mg/kg/injection, schedule: Q01DX010 (sc), vehicle: suspension in saline) was 137 % of control, the T/C (dose: 50.0 mg/kg/injection, schedule: Q01DX010 (sc), vehicle: suspension in saline) was 48, 69, 75, 110 % of control and the T/C (dose: 100.0 mg/kg/injection, schedule: Q01DX010 (sc), vehicle: suspension in saline) was 63, 65, 84, 103 % of control. The T/C (dose: 200.0 mg/kg/injection, schedule: Q01DX010 (sc), vehicle: suspension in saline) was 70 [5 of 6 alive on day 11], 76 [5 of 6 alive on day 11], 87, 95 % of control [4 of 6 alive on day 11], the survivor count (dose: 400.0 mg/kg/injection, schedule: Q01DX010 (sc), vehicle: suspension in saline) was 0 of 6 on day 11 and 1 of 6 on day 11 and the survivor count [1] was 0 of 6 on day 11.
For `COc1cccc2c1C(=N)c1c(O)c3c(c(O)c1C2=O)C[C@@](O)(C(C)=O)C[C@@H]3OC1CC(N)C(O)C(C)O1` (some centres not stated), the survivor count (dose: 32.0 mg/kg/injection, schedule: Q01DX010 (sc), vehicle: water) was 1 of 3 on day 11.
`O=S1(=O)CS(=O)(=O)OCCO1` was tested, and the survivor count (dose: 150.0 mg/kg/injection, schedule: Q04DX003 (sc), vehicle: Klucel (hydroxypropylcellulose) (HPC)) was 3 of 6 on day 11, the survivor count [2] was 1 of 6 on day 11 and the survivor count (dose: 300.0 mg/kg/injection, schedule: Q04DX003 (sc), vehicle: Klucel (hydroxypropylcellulose) (HPC)) was 1 of 6 on day 11. The survivor count [3] was 0 of 6 on day 11.
With `COc1cc(C(=O)N/N=C/c2cccc([N+](=O)[O-])c2)cc(OC)c1OC` the T/C [1] was 125 % of control [4 of 6 alive on day 11] and the survivor count (dose: 1200.0 mg/kg/injection, schedule: Q04DX003 (sc), vehicle: saline with Tween-80) was 3 of 6 on day 11.
For `COC1=C(NC(C)=O)C(=O)c2nc(-c3nc(C(=O)O)c(C)c(-c4ccc(OC)c(OC)c4O)c3N)ccc2C1=O`, the survivor count [2] was 3 of 6 on day 11 and the survivor count [3] was 3 of 6 on day 11.
With `CC(=O)Nc1ccc(O)c(O)c1` the survivor count (dose: 2400.0 mg/kg/injection, schedule: Q04DX003 (sc), vehicle: saline with Tween-80) was 3 of 6 on day 11.
`Cc1ccccc1CN1C2=NCCN2C(=O)C2=C1CCN(S(=O)(=O)c1ccc(Cl)c(S(N)(=O)=O)c1)C2` was tested, and the T/C [4] was 137 % of control.
In the case of `CC(C)(C)NC(C1=CC(C)(C)c2ccccc2C1=O)c1ccccc1` (configuration not stated), the survivor count [5] is reported as 2 of 6 on day 11 and the survivor count (dose: 1200.0 mg/kg/injection, schedule: Q04DX003 (ip), vehicle: Klucel (hydroxypropylcellulose) (HPC)) is reported as 0 of 5 on day 11.
`CCCCn1cnc2c(=S)nc[nH]c21` was tested, and the survivor count (dose: 1200.0 mg/kg/injection, schedule: Q04DX003 (sc), vehicle: suspension in saline) was 1 of 6 on day 11, the survivor count (dose: 1280.0 mg/kg/injection, schedule: Q04DX003 (sc), vehicle: suspension in saline) was 3 of 6 on day 11 and the survivor count (dose: 1600.0 mg/kg/injection, schedule: Q04DX003 (sc), vehicle: suspension in saline) was 2 of 6 on day 11. For the same compound, the survivor count (dose: 2000.0 mg/kg/injection, schedule: Q04DX003 (sc), vehicle: suspension in saline) was 1 of 6 on day 11 and the survivor count (dose: 2400.0 mg/kg/injection, schedule: Q04DX003 (sc), vehicle: suspension in saline) was 2 of 6 on day 11.
For `ClCCCN1CCCCC1CCl` (configuration not stated), the survivor count (dose: 12.5 mg/kg/injection, schedule: Q04DX003 (sc), vehicle: saline) was 3 of 6 on day 11, the survivor count (dose: 25.0 mg/kg/injection, schedule: Q04DX003 (sc), vehicle: saline) was 1 of 6 on day 11 and the survivor count (dose: 50.0 mg/kg/injection, schedule: Q04DX003 (sc), vehicle: saline) was 0 of 6 on day 11.
`CSCS(=O)C[C@H](CO)NC(=O)/C=C/c1c(C)[nH]c(=O)[nH]c1=O` (some centres not stated) was tested, and the T/C (dose: 1.5 mg/kg/injection, schedule: Q04DX003 (sc), vehicle: saline) was 126 % of control and the survivor count (dose: 3.0 mg/kg/injection, schedule: Q04DX003 (sc), vehicle: saline) was 1 of 6 on day 11.
`CCCCN(CCCC)C(Cl)=Nc1ccccc1` was tested, and the T/C (dose: 400.0 mg/kg/injection, schedule: Q04DX003 (sc), vehicle: other) was 125 % of control.
For `O=c1cc(CCl)[nH]nc1CCl`, the survivor count (dose: 200.0 mg/kg/injection, schedule: Q01DX010 (sc), vehicle: saline with Tween-80) was 0 of 3 on day 11 and the survivor count (dose: 400.0 mg/kg/injection, schedule: Q01DX010 (sc), vehicle: saline with Tween-80) was 0 of 3 on day 11.
With `O=[N+]([O-])c1ccc([I+]c2ccccc2)cc1` the survivor count (dose: 150.0 mg/kg/injection, schedule: Q04DX003 (ip), vehicle: Klucel (hydroxypropylcellulose) (HPC)) was 0 of 6 on day 11, the survivor count (dose: 300.0 mg/kg/injection, schedule: Q04DX003 (ip), vehicle: Klucel (hydroxypropylcellulose) (HPC)) was 0 of 6 on day 11 and the survivor count [5] was 0 of 6 on day 11.
In the case of `C(CC1CO1)C1CO1` (configuration not stated), the T/C (dose: 75.0 mg/kg/injection, schedule: Q04DX003 (sc), vehicle: saline) is reported as -22, 15, 18, 20 % of control, the T/C [4] is reported as -100 [4 of 6 alive on day 11], -78, -61, 1 % of control [5 of 6 alive on day 11] and the survivor count (dose: 200.0 mg/kg/injection, schedule: Q01DX010 (sc), vehicle: saline) is reported as 0 of 3 on day 11 and 0 of 6 on day 11. For the same compound, the survivor count [6] was 0 of 6 on day 11, the survivor count (dose: 300.0 mg/kg/injection, schedule: Q04DX003 (sc), vehicle: suspension in saline) was 0 of 6 on day 11 and the survivor count (dose: 600.0 mg/kg/injection, schedule: Q04DX003 (sc), vehicle: saline) was 0 of 6 on day 11. The survivor count (dose: 600.0 mg/kg/injection, schedule: Q04DX003 (sc), vehicle: suspension in saline) was 0 of 6 on day 11.
In the case of `Cn1c(=O)[nH]c2nncnc2c1=O`, the T/C (dose: 62.5 mg/kg/injection, schedule: Q04DX003 (sc), vehicle: water) is reported as 145 % of control [5 of 6 alive on day 11], the survivor count (dose: 250.0 mg/kg/injection, schedule: Q04DX003 (sc), vehicle: water) is reported as 1 of 6 on day 11 and the survivor count (dose: 500.0 mg/kg/injection, schedule: Q04DX003 (sc), vehicle: water) is reported as 0 of 6 on day 11.
With `[Cl][Mn][Cl]` the survivor count [6] was 0 of 6 on day 11.
`Nc1ccc(Cl)cc1N` was tested, and the survivor count (dose: 3600.0 mg/kg/injection, schedule: Q04DX003 (sc), vehicle: saline with Tween-80) was 0 of 6 on day 11.
`CC(=O)OCc1cc(=O)n(C)c2c3c4c(cc12)c(C)cc(=O)n4CO3` was tested, and the survivor count (dose: 200.0 mg/kg/injection, schedule: Q01DX010 (sc), vehicle: Klucel (hydroxypropylcellulose) (HPC)) was 1 of 2 on day 11.
For `CCCCCCCCCCCCCCC/C([O-])=N/[N+](C)(C)CC(C)O` (configuration not stated), the T/C [3] was 144 % of control and the T/C (dose: 1200.0 mg/kg/injection, schedule: Q04DX003 (sc), vehicle: Klucel (hydroxypropylcellulose) (HPC)) was 143 % of control.
For `Nc1nnc[se]1`, the survivor count (dose: 1600.0 mg/kg/injection, schedule: Q04DX003 (sc), vehicle: saline with Tween-80) was 2 of 6 on day 11.
In the case of `O=[n+]1c2ccccc2n([O-])c2ccccc21.[Cl][Ni][Cl]`, the T/C (dose: 37.5 mg/kg/injection, schedule: Q04DX003 (sc), vehicle: saline with Tween-80) is reported as 127 % of control and the survivor count (dose: 300.0 mg/kg/injection, schedule: Q04DX003 (sc), vehicle: saline with Tween-80) is reported as 0 of 6 on day 11.

Reference: PubChem BioAssay AID296 (DTP/NCI, 2004)
